From publication PMC4772974 (EMBO Reports, 2016)
Read-outs that look alike come from different tables or passages of the source. No constants are given. Whether binding was seen depends on the method and setting. In cells and extracts the contact can be indirect. Some entries that bind do so weakly or less than the wild type. For part of these data: Sequences can lack the tags named with a protein.

By UniProt entry, the sequences of proteins in these tests, tags left out. Where a name states a change or a piece, a line headed by the entry shows the natural chain unless it says otherwise.
UniProt Q15154: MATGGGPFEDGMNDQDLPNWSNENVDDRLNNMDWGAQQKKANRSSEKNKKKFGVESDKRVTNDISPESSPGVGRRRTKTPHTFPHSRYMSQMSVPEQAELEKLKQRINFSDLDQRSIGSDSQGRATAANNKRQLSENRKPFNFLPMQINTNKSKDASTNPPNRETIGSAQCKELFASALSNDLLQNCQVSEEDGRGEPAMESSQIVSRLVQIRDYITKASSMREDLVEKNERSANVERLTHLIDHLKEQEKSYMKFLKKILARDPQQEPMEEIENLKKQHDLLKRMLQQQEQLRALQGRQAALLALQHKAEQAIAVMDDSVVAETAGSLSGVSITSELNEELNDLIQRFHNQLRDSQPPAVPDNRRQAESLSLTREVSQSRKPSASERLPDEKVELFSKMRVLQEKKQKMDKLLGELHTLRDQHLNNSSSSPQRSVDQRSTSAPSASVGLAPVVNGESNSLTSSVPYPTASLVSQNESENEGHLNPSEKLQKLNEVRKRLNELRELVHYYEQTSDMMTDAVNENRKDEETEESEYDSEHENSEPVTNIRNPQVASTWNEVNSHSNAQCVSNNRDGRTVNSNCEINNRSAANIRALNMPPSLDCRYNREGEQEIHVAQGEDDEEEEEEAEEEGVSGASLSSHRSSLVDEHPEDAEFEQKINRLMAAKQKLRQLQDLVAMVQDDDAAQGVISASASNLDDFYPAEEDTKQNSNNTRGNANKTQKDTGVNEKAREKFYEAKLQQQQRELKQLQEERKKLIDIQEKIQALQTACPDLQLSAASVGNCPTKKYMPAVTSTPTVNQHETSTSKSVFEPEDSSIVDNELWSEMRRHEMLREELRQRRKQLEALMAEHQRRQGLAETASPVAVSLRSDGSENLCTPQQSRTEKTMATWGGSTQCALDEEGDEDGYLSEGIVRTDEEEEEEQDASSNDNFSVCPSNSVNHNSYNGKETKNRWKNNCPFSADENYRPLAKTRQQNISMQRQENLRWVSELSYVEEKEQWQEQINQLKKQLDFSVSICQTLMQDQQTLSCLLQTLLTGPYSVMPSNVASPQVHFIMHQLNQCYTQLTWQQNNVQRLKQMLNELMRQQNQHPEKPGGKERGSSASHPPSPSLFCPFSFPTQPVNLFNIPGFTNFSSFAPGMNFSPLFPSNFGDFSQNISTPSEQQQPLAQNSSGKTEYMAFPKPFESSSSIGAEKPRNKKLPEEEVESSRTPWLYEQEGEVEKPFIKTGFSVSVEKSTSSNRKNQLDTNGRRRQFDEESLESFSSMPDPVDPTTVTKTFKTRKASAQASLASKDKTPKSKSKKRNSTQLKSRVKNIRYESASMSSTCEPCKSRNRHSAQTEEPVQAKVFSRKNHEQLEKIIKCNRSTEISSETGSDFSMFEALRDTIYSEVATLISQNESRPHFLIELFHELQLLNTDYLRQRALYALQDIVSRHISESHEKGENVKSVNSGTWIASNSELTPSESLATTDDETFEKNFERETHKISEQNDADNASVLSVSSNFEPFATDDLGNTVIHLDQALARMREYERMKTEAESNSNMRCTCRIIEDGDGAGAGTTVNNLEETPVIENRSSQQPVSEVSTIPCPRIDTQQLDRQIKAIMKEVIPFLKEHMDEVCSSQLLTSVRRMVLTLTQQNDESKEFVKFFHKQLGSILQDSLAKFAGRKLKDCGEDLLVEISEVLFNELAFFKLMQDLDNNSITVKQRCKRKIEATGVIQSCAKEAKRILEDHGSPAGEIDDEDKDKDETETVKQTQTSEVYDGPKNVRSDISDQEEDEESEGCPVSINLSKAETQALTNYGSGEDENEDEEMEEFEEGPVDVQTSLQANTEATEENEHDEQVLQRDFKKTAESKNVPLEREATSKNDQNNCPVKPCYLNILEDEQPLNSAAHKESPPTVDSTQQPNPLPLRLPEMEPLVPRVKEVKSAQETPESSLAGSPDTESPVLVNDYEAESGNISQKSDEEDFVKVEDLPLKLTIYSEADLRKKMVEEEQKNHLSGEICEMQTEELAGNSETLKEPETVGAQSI
UniProt O15078: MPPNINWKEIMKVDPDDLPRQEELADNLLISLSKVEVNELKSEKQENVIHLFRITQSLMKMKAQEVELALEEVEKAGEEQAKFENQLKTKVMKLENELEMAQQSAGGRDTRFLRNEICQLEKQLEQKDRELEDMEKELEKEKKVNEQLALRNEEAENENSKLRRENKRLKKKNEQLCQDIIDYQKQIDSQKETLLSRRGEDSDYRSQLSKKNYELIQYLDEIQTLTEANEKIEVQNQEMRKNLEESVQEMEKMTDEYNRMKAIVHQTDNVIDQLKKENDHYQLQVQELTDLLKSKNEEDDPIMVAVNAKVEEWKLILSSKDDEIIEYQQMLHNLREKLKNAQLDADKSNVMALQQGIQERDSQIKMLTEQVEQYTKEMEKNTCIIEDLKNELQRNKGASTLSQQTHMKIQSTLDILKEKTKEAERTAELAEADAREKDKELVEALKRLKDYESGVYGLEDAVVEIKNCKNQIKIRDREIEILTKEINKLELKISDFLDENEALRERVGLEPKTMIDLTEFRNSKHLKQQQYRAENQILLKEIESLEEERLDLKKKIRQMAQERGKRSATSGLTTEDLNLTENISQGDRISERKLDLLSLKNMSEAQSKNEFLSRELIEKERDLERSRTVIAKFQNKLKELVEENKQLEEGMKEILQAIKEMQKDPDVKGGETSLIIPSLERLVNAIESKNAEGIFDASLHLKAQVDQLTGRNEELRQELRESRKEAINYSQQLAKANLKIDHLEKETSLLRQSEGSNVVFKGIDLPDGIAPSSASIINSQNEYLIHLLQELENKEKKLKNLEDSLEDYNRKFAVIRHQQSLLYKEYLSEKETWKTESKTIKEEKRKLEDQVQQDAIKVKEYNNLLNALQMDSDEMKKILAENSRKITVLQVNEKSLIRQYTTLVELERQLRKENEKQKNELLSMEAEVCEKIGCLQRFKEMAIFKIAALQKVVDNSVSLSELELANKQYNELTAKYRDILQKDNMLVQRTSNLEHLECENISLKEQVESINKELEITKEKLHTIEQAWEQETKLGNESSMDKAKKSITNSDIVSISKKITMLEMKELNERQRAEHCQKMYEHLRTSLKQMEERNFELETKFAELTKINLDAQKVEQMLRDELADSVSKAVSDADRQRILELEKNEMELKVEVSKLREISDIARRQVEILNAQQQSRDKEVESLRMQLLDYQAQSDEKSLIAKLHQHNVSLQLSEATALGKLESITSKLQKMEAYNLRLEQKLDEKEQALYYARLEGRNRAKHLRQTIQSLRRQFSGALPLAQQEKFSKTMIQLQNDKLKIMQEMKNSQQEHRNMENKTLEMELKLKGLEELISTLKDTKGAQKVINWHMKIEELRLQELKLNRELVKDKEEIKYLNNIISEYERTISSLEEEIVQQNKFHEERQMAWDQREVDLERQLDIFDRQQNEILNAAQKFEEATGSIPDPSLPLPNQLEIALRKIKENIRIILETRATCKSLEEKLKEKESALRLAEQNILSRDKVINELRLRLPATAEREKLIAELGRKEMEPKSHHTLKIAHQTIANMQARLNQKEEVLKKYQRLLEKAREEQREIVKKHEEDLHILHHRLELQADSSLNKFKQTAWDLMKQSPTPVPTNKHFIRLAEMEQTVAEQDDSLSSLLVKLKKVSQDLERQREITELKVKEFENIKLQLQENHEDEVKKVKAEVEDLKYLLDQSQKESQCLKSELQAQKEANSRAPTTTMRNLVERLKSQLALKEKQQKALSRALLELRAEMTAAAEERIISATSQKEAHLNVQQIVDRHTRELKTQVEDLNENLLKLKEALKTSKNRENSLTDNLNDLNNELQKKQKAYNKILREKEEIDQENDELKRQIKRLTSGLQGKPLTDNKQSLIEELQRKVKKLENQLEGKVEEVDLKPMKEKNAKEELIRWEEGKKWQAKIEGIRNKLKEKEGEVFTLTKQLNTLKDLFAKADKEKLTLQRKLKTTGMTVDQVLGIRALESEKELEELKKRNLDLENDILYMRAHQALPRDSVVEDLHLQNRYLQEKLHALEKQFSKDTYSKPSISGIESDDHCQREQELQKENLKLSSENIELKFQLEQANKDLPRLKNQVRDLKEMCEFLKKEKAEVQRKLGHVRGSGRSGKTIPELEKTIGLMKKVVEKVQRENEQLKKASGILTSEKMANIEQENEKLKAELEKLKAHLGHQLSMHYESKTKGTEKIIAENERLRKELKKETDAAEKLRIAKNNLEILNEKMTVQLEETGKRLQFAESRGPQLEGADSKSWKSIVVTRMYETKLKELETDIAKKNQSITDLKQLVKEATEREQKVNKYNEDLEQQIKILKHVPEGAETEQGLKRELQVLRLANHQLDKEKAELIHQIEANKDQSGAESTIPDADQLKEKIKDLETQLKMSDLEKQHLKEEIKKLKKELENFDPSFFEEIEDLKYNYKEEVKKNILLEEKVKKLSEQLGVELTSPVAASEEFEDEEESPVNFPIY

B1: MBP‐Plk4‐WT (enzyme, UniProt O00444 1-970, looked up)
chain: MATCIGEKIEDFKVGNLLGKGSFAGVYRAESIHTGLEVAIKMIDKKAMYKAGMVQRVQNEVKIHCQLKHPSILELYNYFEDSNYVYLVLEMCHNGEMNRYLKNRVKPFSENEARHFMHQIITGMLYLHSHGILHRDLTLSNLLLTRNMNIKIADFGLATQLKMPHEKHYTLCGTPNYISPEIATRSAHGLESDVWSLGCMFYTLLIGRPPFDTDTVKNTLNKVVLADYEMPSFLSIEAKDLIHQLLRRNPADRLSLSSVLDHPFMSRNSSTKSKDLGTVEDSIDSGHATISTAITASSSTSISGSLFDKRRLLIGQPLPNKMTVFPKNKSSTDFSSSGDGNSFYTQWGNQETSNSGRGRVIQDAEERPHSRYLRRAYSSDRSGTSNSQSQAKTYTMERCHSAEMLSVSKRSGGGENEERYSPTDNNANIFNFFKEKTSSSSGSFERPDNNQALSNHLCPGKTPFPFADPTPQTETVQQWFGNLQINAHLRKTTEYDSISPNRDFQGHPDLQKDTSKNAWTDTKVKKNSDASDNAHSVKQQNTMKYMTALHSKPEIIQQECVFGSDPLSEQSKTRGMEPPWGYQNRTLRSITSPLVAHRLKPIRQKTKKAVVSILDSEEVCVELVKEYASQEYVKEVLQISSDGNTITIYYPNGGRGFPLADRPPSPTDNISRYSFDNLPEKYWRKYQYASRFVQLVRSKSPKITYFTRYAKCILMENSPGADFEVWFYDGVKIHKTEDFIQVIEKTGKSYTLKSESEVNSLKEEIKMYMDHANEGHRICLALESIISEEERKTRSAPFFPIIIGRKPGSTSSPKALSPPPSVDSNYPTRERASFNRMVMHSAASPTQAPILNPSMVTNEGLGLTTTASGTDISSNSLKDCLPKSAQLLKSVFVKNVGWATQLTSGAVWVQFNDGSQLVVQAGVSSISYTSPNGQTTRYGENEKLPDYIKQKLQCLSSILLMFSNPTPNFH
B2: hMsd1/SSX2IP (protein, UniProt Q9Y2D8 1-614)
chain: MGDWMTVTDPGLSSESKTISQYTSETKMSPSSLYSQQVLCSSIPLSKNVHSFFSAFCTEDNIEQSISYLDQELTTFGFPSLYEESKGKETKRELNIVAVLNCMNELLVLQRKNLLAQENVETQNLKLGSDMDHLQSCYSKLKEQLETSRREMIGLQERDRQLQCKNRNLHQLLKNEKDEVQKLQNIIASRATQYNHDMKRKEREYNKLKERLHQLVMNKKDKKIAMDILNYVGRADGKRGSWRTGKTEARNEDEMYKILLNDYEYRQKQILMENAELKKVLQQMKKEMISLLSPQKKKPRERVDDSTGTVISDVEEDAGELSRESMWDLSCETVREQLTNSIRKQWRILKSHVEKLDNQVSKVHLEGFNDEDVISRQDHEQETEKLELEIQQCKEMIKTQQQLLQQQLATAYDDDTTSLLRDCYLLEEKERLKEEWSLFKEQKKNFERERRSFTEAAIRLGLERKAFEEERASWLKQQFLNMTTFDHQNSENVKLFSAFSGSSDWDNLIVHSRQPQKKPHSVSNGSPVCMSKLTKSLPASPSTSDFCQTRSCISEHSSINVLNITAEEIKPNQVGGECTNQKWSVASRPGSQEGCYSGCSLSYTNSHVEKDDLP
B3: BBS4 (protein, UniProt Q96RK4 1-519)
chain: MAEERVATRTQFPVSTESQKPRQKKAPEFPILEKQNWLIHLHYIRKDYEACKAVIKEQLQETQGLCEYAIYVQALIFRLEGNIQESLELFQTCAVLSPQSADNLKQVARSLFLLGKHKAAIEVYNEAAKLNQKDWEISHNLGVCYIYLKQFNKAQDQLHNALNLNRHDLTYIMLGKIHLLEGDLDKAIEVYKKAVEFSPENTELLTTLGLLYLQLGIYQKAFEHLGNALTYDPTNYKAILAAGSMMQTHGDFDVALTKYRVVACAVPESPPLWNNIGMCFFGKKKYVAAISCLKRANYLAPFDWKILYNLGLVHLTMQQYASAFHFLSAAINFQPKMGELYMLLAVALTNLEDIENAKRAYAEAVHLDKCNPLVNLNYAVLLYNQGEKKNALAQYQEMEKKVSLLKDNSSLEFDSEMVEMAQKLGAALQVGEALVWTKPVKDPKSKHQTTSTSKPASFQQPLGSNQALGQAMSSAAAYRTLPSGAGGTSQFTKPPSLPLEPEPAVESSPTETSEQIREK

Tests used:
[1] = biological target: EGFP‐PCM1‐S372A* (human) (UniProt Q15154); test: co-IP; PCM1 siRNA-treated U2OS cells co-transfected with EGFP- and mCherry-tagged PCM1 (WT*, S372A*) in combinations; IP with anti-RFP (RFP-Trap) of mCherry-PCM1, immunoblot
[2] = biological target: T1, myc‐Plk4 (wild type; siRNA-resistant version myc‐tagged Plk4‐WT*) (UniProt O00444); test: co-IP; U2OS cells transfected with myc-Plk4 (for Fig EV2A siRNA-resistant myc-Plk4-WT* after Plk4 siRNA); IP with anti-myc antibody; immunoblot of endogenous proteins
T1 sequence: B1 chain

[3] = biological target: EGFP‐PCM1 (wild type; siRNA-resistant version EGFP‐PCM1‐WT*) (human) (UniProt Q15154); test: co-IP; U2OS cells transfected with EGFP-PCM1 constructs (for Fig 3F after PCM1 siRNA); 1 mg lysate with GFP-Trap / anti-GFP overnight at 4°C in lysis buffer (25 mM Tris-HCl pH 7.0, 300 mM NaCl, 1% NP-40); immunoblot of endogenous partners
[4] = biological target: EGFP‐PCM1‐S372A* (human) (UniProt Q15154); test: as above
[5] = biological target: EGFP‐PCM1 (wild type; siRNA-resistant version EGFP‐PCM1‐WT*) (human) (UniProt Q15154); test: as above; remark: listed apart in the source
[6] = biological target: EGFP‐PCM1‐S372A* (human) (UniProt Q15154); test: as above; remark: listed apart in the source

binding [2] | binding [5] | also measured | Molecule
– | – | binding [1]: binds | EGFP‐PCM1 (wild type; siRNA-resistant version EGFP‐PCM1‐WT*) (from UniProt Q15154 1-2024)
binds | – | – | endogenous PCM1 (from UniProt Q15154 1-2024)
– | – | binding [3]: binds; binding [4]: binds | Cep290 (from UniProt O15078 1-2479)
– | – | binding [1]: binds | EGFP‐PCM1‐S372A* (from UniProt Q15154 1-2024)
– | binds | – | B1
no binding | binds | binding [6]: binds | B2
no binding | binds | binding [6]: binds | B3
